The other results are listed elsewhere or left out.
Key:
Test in all cases: log2 fold change, soluble protein after heating vs DMSO (PISA); higher = thermal stabilisation; K562 lysate, 10 uM; active = over 0.2 and 3.5 SD of the protein, either way, in both replicates (recomputed)
nilotinib = compound: Cc1cn(-c2cc(NC(=O)c3ccc(C)c(Nc4nccc(-c5cccnc5)n4)c3)cc(C(F)(F)F)c2)cn1 [nilotinib]
Method in brief: (§1)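 Soluble protein was defined as the supernatant remaining after 21,000xg for 90 min, following pooling of heated aliquots and adjustment to 0.5% NP-40 at 4°C. Before that, crude K562 extract at 1 mg/mL protein in PBS pH 7.4 with 1 mM MgCl2 was treated with 10 μM compound for 30 min and heated for 3 min across 48°C-58°C. Quantification used TMTpro 16plex LC-MS/MS with channel sums equalised, and values are log-two fold changes in thermal stability relative to solvent controls from duplicates.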

The chains behind the UniProt entries cited, without tags or fusion partners. Where a name states a change or a piece, a line headed by the entry shows the natural chain unless it says otherwise.
UniProt Q86U86, whole entry, looked up: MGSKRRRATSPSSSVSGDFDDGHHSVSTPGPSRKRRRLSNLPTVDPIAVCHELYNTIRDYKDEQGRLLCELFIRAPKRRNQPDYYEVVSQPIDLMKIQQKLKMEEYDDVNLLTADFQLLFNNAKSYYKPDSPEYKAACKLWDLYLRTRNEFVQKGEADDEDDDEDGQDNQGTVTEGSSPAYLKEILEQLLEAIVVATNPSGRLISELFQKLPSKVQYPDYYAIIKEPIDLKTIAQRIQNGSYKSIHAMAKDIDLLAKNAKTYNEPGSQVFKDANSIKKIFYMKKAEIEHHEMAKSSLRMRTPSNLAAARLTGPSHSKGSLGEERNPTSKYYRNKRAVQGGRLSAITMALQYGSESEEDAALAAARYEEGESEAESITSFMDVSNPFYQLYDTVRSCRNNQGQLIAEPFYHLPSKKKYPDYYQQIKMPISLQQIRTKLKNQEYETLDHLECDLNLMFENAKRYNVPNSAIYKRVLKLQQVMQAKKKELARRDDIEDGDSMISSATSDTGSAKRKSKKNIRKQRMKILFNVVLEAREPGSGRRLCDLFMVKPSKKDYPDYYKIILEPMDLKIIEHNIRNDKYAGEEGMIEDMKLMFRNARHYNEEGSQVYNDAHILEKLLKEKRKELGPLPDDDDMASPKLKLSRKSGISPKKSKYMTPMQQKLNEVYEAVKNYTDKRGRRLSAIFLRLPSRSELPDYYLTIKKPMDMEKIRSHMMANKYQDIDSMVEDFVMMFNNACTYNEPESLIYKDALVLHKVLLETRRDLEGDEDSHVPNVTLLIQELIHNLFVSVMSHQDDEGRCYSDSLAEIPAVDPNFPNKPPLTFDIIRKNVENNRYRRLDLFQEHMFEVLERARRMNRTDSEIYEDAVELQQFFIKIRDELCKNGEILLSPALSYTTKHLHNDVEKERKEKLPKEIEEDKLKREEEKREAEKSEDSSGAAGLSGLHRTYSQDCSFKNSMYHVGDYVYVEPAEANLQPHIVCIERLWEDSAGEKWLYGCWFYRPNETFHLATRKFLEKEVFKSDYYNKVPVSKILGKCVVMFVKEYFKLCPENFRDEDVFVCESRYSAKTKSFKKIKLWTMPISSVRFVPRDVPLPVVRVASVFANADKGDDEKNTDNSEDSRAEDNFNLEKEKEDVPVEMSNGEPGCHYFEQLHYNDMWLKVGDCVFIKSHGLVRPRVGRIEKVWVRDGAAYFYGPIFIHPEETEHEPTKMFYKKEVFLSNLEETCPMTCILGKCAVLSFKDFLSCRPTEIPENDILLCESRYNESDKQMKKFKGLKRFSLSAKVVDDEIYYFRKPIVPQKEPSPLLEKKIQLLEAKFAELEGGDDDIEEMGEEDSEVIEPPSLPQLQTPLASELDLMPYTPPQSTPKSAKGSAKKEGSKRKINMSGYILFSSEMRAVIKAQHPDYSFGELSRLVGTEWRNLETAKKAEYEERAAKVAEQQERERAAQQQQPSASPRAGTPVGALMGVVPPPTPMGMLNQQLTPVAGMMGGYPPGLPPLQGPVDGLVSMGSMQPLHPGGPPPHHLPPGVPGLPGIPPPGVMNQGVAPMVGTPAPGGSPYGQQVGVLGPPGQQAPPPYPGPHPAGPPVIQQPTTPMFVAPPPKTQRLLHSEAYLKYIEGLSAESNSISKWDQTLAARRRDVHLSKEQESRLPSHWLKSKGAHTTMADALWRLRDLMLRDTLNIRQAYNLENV
UniProt O60825: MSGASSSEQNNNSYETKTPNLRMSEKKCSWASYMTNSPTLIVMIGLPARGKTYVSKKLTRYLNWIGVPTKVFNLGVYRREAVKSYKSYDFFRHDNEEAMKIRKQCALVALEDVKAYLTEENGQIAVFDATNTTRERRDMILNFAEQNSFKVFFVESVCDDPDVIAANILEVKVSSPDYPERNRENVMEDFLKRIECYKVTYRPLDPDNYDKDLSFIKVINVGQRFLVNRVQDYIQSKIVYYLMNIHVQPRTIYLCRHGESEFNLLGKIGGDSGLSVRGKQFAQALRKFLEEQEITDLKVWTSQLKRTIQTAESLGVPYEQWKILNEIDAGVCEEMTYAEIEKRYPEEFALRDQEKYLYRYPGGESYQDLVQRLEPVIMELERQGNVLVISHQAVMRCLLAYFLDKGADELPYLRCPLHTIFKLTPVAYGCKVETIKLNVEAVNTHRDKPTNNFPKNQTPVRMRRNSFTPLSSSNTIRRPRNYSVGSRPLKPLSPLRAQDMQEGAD
UniProt Q15121, whole entry, looked up: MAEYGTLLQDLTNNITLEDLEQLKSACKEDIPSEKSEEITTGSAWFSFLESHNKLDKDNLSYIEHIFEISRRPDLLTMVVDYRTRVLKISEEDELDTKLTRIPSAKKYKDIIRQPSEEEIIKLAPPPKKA
UniProt P0DJ07: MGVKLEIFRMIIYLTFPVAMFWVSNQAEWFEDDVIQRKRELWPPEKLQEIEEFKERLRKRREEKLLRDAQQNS
UniProt O94913, whole entry, looked up: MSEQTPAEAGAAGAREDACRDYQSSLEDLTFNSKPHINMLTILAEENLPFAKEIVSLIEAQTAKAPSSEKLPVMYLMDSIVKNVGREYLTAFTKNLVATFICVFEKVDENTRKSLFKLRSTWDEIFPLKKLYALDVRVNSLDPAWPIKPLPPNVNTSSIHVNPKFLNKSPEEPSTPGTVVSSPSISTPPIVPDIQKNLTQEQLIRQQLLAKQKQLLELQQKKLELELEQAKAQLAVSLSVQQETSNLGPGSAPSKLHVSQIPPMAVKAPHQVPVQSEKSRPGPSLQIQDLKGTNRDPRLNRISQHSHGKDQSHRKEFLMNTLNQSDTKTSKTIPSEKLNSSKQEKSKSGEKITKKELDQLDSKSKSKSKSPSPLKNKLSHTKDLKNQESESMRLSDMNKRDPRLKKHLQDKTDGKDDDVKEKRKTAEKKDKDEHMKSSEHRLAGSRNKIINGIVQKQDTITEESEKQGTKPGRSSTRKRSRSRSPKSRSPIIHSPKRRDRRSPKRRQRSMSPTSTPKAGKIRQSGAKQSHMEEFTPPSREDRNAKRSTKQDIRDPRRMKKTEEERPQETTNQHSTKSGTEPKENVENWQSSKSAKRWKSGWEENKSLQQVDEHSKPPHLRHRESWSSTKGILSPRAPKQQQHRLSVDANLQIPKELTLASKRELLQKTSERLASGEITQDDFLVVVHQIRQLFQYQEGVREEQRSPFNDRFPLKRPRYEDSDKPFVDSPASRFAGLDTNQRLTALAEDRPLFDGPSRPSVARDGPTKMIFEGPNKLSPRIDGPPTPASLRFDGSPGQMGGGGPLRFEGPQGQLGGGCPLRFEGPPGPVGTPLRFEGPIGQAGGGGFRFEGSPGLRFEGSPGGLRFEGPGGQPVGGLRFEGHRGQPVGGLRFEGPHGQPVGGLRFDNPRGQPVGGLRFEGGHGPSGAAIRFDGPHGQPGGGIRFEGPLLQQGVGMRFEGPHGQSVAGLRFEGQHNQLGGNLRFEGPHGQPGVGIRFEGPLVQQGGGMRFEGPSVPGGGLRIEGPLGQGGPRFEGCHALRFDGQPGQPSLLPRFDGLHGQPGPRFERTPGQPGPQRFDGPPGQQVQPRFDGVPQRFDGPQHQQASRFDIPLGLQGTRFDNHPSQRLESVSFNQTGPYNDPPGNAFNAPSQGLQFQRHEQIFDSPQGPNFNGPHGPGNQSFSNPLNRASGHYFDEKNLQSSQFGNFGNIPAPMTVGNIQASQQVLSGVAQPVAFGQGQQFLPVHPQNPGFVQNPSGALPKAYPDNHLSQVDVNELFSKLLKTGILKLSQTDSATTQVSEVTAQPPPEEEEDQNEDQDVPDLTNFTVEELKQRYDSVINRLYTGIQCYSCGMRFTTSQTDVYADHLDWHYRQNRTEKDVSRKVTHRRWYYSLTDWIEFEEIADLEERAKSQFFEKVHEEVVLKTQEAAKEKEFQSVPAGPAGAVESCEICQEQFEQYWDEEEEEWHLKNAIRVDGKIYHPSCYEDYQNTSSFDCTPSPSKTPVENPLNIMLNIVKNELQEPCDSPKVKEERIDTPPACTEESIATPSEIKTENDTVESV
UniProt Q8WW12: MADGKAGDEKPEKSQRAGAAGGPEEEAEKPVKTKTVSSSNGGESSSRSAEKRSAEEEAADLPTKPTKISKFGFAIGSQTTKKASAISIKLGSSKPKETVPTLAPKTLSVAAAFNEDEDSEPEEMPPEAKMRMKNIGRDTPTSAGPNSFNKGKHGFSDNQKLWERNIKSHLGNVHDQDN
UniProt P61457: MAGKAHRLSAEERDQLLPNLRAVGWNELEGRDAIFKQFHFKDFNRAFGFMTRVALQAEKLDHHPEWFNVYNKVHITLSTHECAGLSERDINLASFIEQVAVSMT
UniProt O00330, whole entry, looked up: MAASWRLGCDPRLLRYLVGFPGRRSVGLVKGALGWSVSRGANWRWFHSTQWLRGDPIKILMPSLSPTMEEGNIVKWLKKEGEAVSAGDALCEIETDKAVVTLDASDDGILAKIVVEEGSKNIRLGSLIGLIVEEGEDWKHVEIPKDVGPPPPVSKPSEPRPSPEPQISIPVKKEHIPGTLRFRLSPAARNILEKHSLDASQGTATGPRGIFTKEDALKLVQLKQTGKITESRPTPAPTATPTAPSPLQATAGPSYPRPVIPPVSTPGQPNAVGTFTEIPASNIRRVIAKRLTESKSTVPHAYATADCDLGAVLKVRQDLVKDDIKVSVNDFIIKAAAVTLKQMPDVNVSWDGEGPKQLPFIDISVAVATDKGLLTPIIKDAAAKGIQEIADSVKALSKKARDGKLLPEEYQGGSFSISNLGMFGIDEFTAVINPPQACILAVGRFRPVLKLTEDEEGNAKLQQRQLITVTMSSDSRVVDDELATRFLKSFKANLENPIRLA
UniProt P12004, whole entry, looked up: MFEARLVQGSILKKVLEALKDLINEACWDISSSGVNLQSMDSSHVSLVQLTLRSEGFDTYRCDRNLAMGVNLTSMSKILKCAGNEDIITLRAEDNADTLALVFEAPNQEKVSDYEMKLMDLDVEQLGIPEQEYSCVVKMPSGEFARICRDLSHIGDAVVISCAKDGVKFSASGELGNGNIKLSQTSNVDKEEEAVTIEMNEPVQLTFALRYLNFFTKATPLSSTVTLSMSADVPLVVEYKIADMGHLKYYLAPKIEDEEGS
UniProt Q5T2R2: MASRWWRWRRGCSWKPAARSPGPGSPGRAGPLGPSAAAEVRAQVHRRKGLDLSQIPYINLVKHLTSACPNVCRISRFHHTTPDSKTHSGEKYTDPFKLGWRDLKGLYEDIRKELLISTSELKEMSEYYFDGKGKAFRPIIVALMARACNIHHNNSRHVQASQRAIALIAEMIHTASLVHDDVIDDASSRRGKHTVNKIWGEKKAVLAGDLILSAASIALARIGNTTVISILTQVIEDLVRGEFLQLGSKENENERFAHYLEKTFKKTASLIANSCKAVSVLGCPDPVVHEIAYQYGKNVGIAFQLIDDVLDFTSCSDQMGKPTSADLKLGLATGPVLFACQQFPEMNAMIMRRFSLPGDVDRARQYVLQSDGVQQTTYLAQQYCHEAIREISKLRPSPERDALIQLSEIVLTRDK
UniProt Q8NEN9: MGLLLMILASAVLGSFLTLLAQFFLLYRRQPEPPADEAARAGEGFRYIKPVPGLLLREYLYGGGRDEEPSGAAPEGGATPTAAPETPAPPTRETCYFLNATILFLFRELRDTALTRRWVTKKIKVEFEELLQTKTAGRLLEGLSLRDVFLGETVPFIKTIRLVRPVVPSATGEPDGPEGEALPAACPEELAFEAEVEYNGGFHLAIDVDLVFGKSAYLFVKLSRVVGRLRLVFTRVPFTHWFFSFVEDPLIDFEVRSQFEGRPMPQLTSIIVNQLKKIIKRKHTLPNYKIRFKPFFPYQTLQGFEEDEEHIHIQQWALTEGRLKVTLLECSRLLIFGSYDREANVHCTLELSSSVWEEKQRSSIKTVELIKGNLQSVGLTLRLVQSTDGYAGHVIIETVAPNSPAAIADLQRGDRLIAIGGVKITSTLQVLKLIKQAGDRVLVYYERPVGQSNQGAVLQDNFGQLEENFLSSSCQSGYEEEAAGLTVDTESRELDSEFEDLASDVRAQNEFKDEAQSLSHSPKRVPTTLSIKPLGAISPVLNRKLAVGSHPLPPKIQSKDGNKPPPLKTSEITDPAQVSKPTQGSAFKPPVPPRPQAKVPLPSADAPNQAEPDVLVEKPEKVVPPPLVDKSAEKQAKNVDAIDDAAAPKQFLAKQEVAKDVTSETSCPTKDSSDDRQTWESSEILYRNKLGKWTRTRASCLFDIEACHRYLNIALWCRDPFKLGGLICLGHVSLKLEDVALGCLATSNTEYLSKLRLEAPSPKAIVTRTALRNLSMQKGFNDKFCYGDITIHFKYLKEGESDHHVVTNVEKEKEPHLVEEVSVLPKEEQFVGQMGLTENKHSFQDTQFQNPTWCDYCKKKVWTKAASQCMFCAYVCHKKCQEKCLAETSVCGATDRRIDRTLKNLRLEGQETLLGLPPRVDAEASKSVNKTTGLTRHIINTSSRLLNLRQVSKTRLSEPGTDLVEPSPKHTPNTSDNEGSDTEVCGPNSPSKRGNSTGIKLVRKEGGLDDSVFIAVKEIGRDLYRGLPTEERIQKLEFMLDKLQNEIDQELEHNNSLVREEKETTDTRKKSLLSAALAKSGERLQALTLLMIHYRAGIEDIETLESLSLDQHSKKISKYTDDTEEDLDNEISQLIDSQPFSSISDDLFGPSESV

[1] = compound: Cc1nc(Nc2n[nH]c3c2CN(C(=O)N[C@H](CN(C)C)c2ccccc2)C3(C)C)c2sccc2n1
Method in brief: as §1

dasatinib = compound: Cc1nc(Nc2ncc(C(=O)Nc3c(C)cccc3Cl)s2)cc(N2CCN(CCO)CC2)n1 [dasatinib]
Method in brief: as §1

[2] = compound: Cc1ncc(-c2ccnc(Nc3ccc(S(C)(=O)=O)cc3)n2)n1C(C)C
Method in brief: as §1

[3] = compound: Cn1cc(-c2ccc3c(c2)CCN3C(=O)Cc2cccc(C(F)(F)F)c2)c2c(N)ncnc21
Method in brief: as §1

quisinostat = compound: Cn1cc(CNCC2CCN(c3ncc(C(=O)NO)cn3)CC2)c2ccccc21 [quisinostat]
Method in brief: as §1

tipifarnib = compound: Cn1cncc1[C@@](N)(c1ccc(Cl)cc1)c1ccc2c(c1)c(-c1cccc(Cl)c1)cc(=O)n2C [tipifarnib]
Method in brief: as §1

[4] = compound: NC(=O)Nc1cc(-c2cccc(F)c2)sc1C(=O)N[C@H]1CCCNC1
Method in brief: as §1

[5] = compound: NC(=O)c1cnc(N[C@@H]2CCCC[C@@H]2N)nc1Nc1cccc(-n2nccn2)c1
Method in brief: as §1

[6] = compound: NC1(c2ccc(-c3nc4ccn5c(=O)[nH]nc5c4cc3-c3ccccc3)cc2)CCC1
Method in brief: as §1

Measured: log2 fold change

PCYT2 isoform 3 (UniProt Q99447)
inactive: nilotinib -0.033 | [1] 0.005 | dasatinib 0.008 | [2] 0.006 | [3] 0.054 | quisinostat -0.116 | tipifarnib -0.03 | [4] 0.013 | [5] 0.009 | [6] -0.066

PDPK1 (UniProt O15530)
active: [4] 0.619
inactive: nilotinib -0.093 | [1] 0.314 | dasatinib -0.014 | [2] -0.093 | [3] 0 | quisinostat -0.094 | tipifarnib -0.011 | [5] 0.019 | [6] -0.059

PEX2 (UniProt P28328)
inactive: nilotinib 0.059 | [1] -0.158 | dasatinib -0.078 | [2] -0.041 | [3] 0.039 | quisinostat 0.054 | tipifarnib 0.048 | [4] 0.143 | [5] 0.116 | [6] -0.106

PDXDC1 (UniProt Q6P996)
inactive: nilotinib 0.058 | [1] 0.064 | dasatinib -0.098 | [2] -0.024 | [3] 0.022 | quisinostat -0.035 | tipifarnib -0.074 | [4] 0.019 | [5] 0.042 | [6] 0.012

PFKFB3 isoform 4 (UniProt Q16875)
inactive: nilotinib 0.018 | [1] -0.023 | dasatinib -0.088 | [2] -0.021 | [3] 0.075 | quisinostat -0.012 | tipifarnib 0.01 | [4] -0.025 | [5] -0.192 | [6] -0.001

PARVB (UniProt Q9HBI1)
inactive: nilotinib -0.02 | [1] -0.017 | dasatinib -0.017 | [2] 0.043 | [3] -0.001 | quisinostat -0.007 | tipifarnib -0.023 | [4] 0.015 | [5] 0.017 | [6] -0.038

PCBD2 (UniProt Q9H0N5)
inactive: nilotinib 0.01 | [1] -0.045 | dasatinib 0.011 | [2] -0.063 | [3] 0.051 | quisinostat -0.08 | tipifarnib -0.101 | [4] 0.033 | [5] 0.069 | [6] -0.066

PDXP (UniProt Q96GD0)
inactive: nilotinib -0.001 | [1] -0.024 | dasatinib -0.001 | [2] 0.012 | [3] 0 | quisinostat 0.044 | tipifarnib 0.077 | [4] -0.042 | [5] 0.008 | [6] 0.076

PARP2 (UniProt Q9UGN5)
inactive: nilotinib -0.038 | [1] -0.026 | dasatinib -0.026 | [2] 0.015 | [3] 0.03 | quisinostat -0.07 | tipifarnib 0.031 | [4] -0.012 | [5] 0.046 | [6] 0.036

PBRM1 (UniProt Q86U86)
inactive: nilotinib 0.068 | [1] 0.082 | dasatinib -0.15 | [2] -0.115 | [3] 0.159 | quisinostat 0.009 | tipifarnib -0.012 | [4] 0.016 | [5] 0.047 | [6] -0.309

PFKFB2 (UniProt O60825)
inactive: nilotinib -0.04 | [1] 0.011 | dasatinib 0.017 | [2] -0.043 | [3] 0.014 | quisinostat 0.024 | tipifarnib -0.011 | [4] -0.046 | [5] -0.003 | [6] -0.009

PAXBP1 (UniProt Q9Y5B6)
inactive: nilotinib -0.014 | [1] 0.012 | dasatinib -0.046 | [2] 0.011 | [3] 0.024 | quisinostat -0.041 | tipifarnib -0.008 | [4] 0.031 | [5] 0.023 | [6] -0.006

PARP1 (UniProt P09874)
inactive: nilotinib -0.014 | [1] 0.012 | dasatinib -0.017 | [2] 0.009 | [3] 0.001 | quisinostat 0.029 | tipifarnib 0.017 | [4] 0.015 | [5] -0.008 | [6] -0.001

PEA15 isoform 2 (UniProt Q15121)
inactive: nilotinib 0.017 | [1] 0.02 | dasatinib 0.011 | [2] 0.041 | [3] -0.043 | quisinostat 0.012 | tipifarnib 0.041 | [4] -0.05 | [5] 0 | [6] -0.035

PET100 (UniProt P0DJ07)
inactive: nilotinib -0.08 | [1] 0 | dasatinib -0.025 | [2] 0.059 | [3] 0.092 | quisinostat 0.17 | tipifarnib 0.079 | [4] -0.022 | [5] 0.097 | [6] 0.027

PARS2 (UniProt Q7L3T8)
inactive: nilotinib -0.011 | [1] -0.019 | dasatinib 0.015 | [2] 0.046 | [3] -0.033 | quisinostat 0.062 | tipifarnib -0.035 | [4] -0.009 | [5] -0.012 | [6] 0.007

PCF11 (UniProt O94913)
inactive: nilotinib -0.003 | [1] -0.001 | dasatinib -0.042 | [2] 0.023 | [3] -0.017 | quisinostat -0.004 | tipifarnib -0.029 | [4] 0.019 | [5] -0.013 | [6] -0.012

PFDN2 (UniProt Q9UHV9)
inactive: nilotinib -0.011 | [1] 0.013 | dasatinib 0.008 | [2] -0.045 | [3] -0.019 | quisinostat 0.037 | tipifarnib 0 | [4] -0.018 | [5] -0.028 | [6] 0.053

PCNP (UniProt Q8WW12)
inactive: nilotinib -0.021 | [1] -0.024 | dasatinib -0.015 | [2] 0.004 | [3] -0.034 | quisinostat 0.017 | tipifarnib 0.002 | [4] -0.074 | [5] -0.022 | [6] -0.017

Reprinted from the results shown (2 entries):
PCYT2 isoform 3 (UniProt Q99447)
inactive: nilotinib -0.033 | [1] 0.005 | dasatinib 0.008 | [2] 0.006 | [3] 0.054 | quisinostat -0.116 | tipifarnib -0.03 | [4] 0.013 | [5] 0.009 | [6] -0.066

PDPK1 (UniProt O15530)
active: [4] 0.619
inactive: nilotinib -0.093 | [1] 0.314 | dasatinib -0.014 | [2] -0.093 | [3] 0 | quisinostat -0.094 | tipifarnib -0.011 | [5] 0.019 | [6] -0.059

Next results follow.

PDCD11 (UniProt Q14690)
inactive: nilotinib -0.049 | [1] -0.04 | dasatinib -0.099 | [2] -0.043 | [3] -0.035 | quisinostat -0.092 | tipifarnib -0.04 | [4] 0.039 | [5] 0.029 | [6] -0.065

PES1 (UniProt O00541)
inactive: nilotinib -0.004 | [1] 0.006 | dasatinib 0.016 | [2] -0.034 | [3] 0.001 | quisinostat -0.067 | tipifarnib 0.001 | [4] 0.026 | [5] 0.015 | [6] -0.047

PDIA5 (UniProt Q14554)
inactive: nilotinib 0.03 | [1] -0.001 | dasatinib 0.017 | [2] -0.009 | [3] -0.008 | quisinostat -0.018 | tipifarnib -0.023 | [4] 0.01 | [5] -0.019 | [6] -0.035

PCBD1 (UniProt P61457)
inactive: nilotinib -0.01 | [1] -0.003 | dasatinib -0.002 | [2] -0.078 | [3] -0.068 | quisinostat -0.13 | tipifarnib -0.007 | [4] -0.013 | [5] -0.004 | [6] -0.013

PDHX (UniProt O00330)
inactive: nilotinib -0.022 | [1] 0.001 | dasatinib -0.033 | [2] 0.045 | [3] 0.001 | quisinostat -0.005 | tipifarnib 0.003 | [4] -0.001 | [5] -0.003 | [6] -0.01

PEX19 (UniProt P40855)
inactive: nilotinib 0 | [1] 0 | dasatinib -0.027 | [2] 0.049 | [3] -0.01 | quisinostat -0.076 | tipifarnib 0.018 | [4] -0.008 | [5] -0.006 | [6] -0.037

PCNA (UniProt P12004)
inactive: nilotinib -0.008 | [1] -0.03 | dasatinib 0.009 | [2] -0.012 | [3] 0.017 | quisinostat 0.036 | tipifarnib 0.022 | [4] -0.03 | [5] -0.008 | [6] 0.016

PDSS1 (UniProt Q5T2R2)
inactive: nilotinib -0.075 | [1] -0.041 | dasatinib 0.009 | [2] -0.012 | [3] 0.148 | quisinostat -0.057 | tipifarnib 0.072 | [4] -0.027 | [5] 0.09 | [6] -0.073

PCBP2 (UniProt H3BRU6)
inactive: nilotinib 0.066 | [1] 0.04 | dasatinib 0.079 | [2] 0.027 | [3] -0.082 | quisinostat -0.119 | tipifarnib -0.095 | [4] 0.042 | [5] -0.023 | [6] 0.084

PDZD8 (UniProt Q8NEN9)
inactive: nilotinib 0.016 | [1] 0.011 | dasatinib -0.04 | [2] 0.054 | [3] -0.03 | quisinostat 0.01 | tipifarnib -0.005 | [4] 0.006 | [5] -0.02 | [6] 0.009

PCCA (UniProt P05165)
inactive: nilotinib 0.072 | [1] -0.031 | dasatinib 0.001 | [2] -0.023 | [3] -0.027 | quisinostat 0.045 | tipifarnib -0.009 | [4] -0.008 | [5] 0.012 | [6] 0.013
